Source: PubChem BioAssay AID1296 (Columbia University Molecular Screening Center, 2008)
About 1,000 (0.77%) of roughly 130,000 compounds were called active. Inconclusive results, whose numbers are uncertain, are shown with a selection of clear calls.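 Rule for the calls: active = activation at 2 µM above a set limit, confirmed on inspection of the cell images; inconclusive = above the set limit but not confirmed on image inspection; inactive = the rest.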

experiment: activators of insulin promoter-driven GFP, primary screen, imaging, TRM-6 cells (human fetal islet line), eGFP reporter, cell count (AID 1296;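 note: share of cells whose green reporter signal exceeds an intensity cutoff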); details: at 2 µM, active compounds read high, plate-scaled: unstimulated 0, stimulated control 100
Method in brief: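 Assay system: TRM-6 insulin promoter–eGFP reporter cells / Input: 1,000 cells per well / Medium: Low-glucose (5.5 mM) medium with tamoxifen / Also added: tamoxifen inducer, 0.75 µM, in seeding medium / Timing: overnight tamoxifen, then two-day compound incubation at 37 °C / Signal: automated fluorescence imaging of paraformaldehyde-fixed, Hoechst-counterstained cells, green channel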

Compound | activation
Cc1[nH]nc2ncc(C(=O)c3ccccc3O)cc12 | inactive: -80%
C=CCn1c(SCC(=O)NCc2ccccc2)nnc1C1CCCCC1 | inconclusive: 88.2%
CCC(C)NS(=O)(=O)c1ccc(OCC(=O)Nc2ccc(F)cc2F)cc1 (stereo not drawn) | active: 462%
CCCC1=C(C(=O)OCC)C(c2c(C)nn(-c3ccccc3)c2Cl)C(C#N)=C(N)O1 (stereo not drawn) | inactive: 3.45%
CCCc1nc2n[nH]c(N)c2c2c1COC(C)(C)C2 | inconclusive: 421%
O=C(NCc1cccc(F)c1)c1noc2c1CCCC2 | active: 257%
COCCC(=O)N1CCCC(C(=O)c2ccc(Oc3ccccc3)cc2)C1 (stereo not drawn) | active: 542%
CCNC(=S)N(CCc1c(C)[nH]c2ccc(C)cc12)Cc1ccco1 | active: 340%
C=CCn1c(CNC(=O)c2ccco2)nnc1SCC(=O)c1ccccc1 | active: 255%
COCCNC(=O)CN(C(=O)CCC(=O)Nc1ccccn1)c1ccccc1F | inactive: 6.67%
CCCCn1c(N)c(N(CCOC)C(=O)CSc2nc3ccc(C)cc3[nH]2)c(=O)[nH]c1=O | inconclusive: 171%
CC1(C)Cc2ccccc2-c2nnc(SCc3ccccc3)n21 | inconclusive: 487%
COc1ccccc1NC(=O)C1=C(C)Nc2nc3ccccc3n2C1c1cccs1 (stereo not drawn) | inconclusive: 403%
O=C(CSc1nnc(-c2ccncc2)n1-c1ccc(Cl)cc1)NCc1cccs1 | inactive: -7.89%
O=C(Cn1nnc(-c2ccc(CN3CCOCC3)cc2)n1)N1CCCc2ccccc21 | inconclusive: 257% [cytotoxic]
Cn1c(N)c(C(=O)COC(=O)CCC2CCCCC2)c(=O)n(C)c1=O | inactive: 9.52%
O=C(Nc1nnc(-c2ccc(F)cc2)o1)c1cc(Cl)sc1Cl | inconclusive: 257% [cytotoxic]
Fc1cccc(-n2ncc(-c3nnnn3-c3ccccc3)c2C(F)(F)F)c1 | active: 529%
CCOCCCNC(=O)c1ccc2c(c1)N=C(CC)c1cc(Br)ccc1S2 | inconclusive: 273% [cytotoxic]
O=C(NC1(C(F)(F)F)C(=O)Nc2c1c(=O)[nH]c(=O)n2Cc1ccccc1)c1ccc(Cl)cc1Cl (stereo not drawn) | inconclusive: 97.1%
Cc1c(N=C/C=C2/N(C)c3ccccc3C2(C)C)c(=O)n(-c2ccccc2)n1C | inactive: 30.4%
Clc1ccc2nc(-c3ccccn3)c(Nc3ccc4c(c3)OCO4)n2c1 | inconclusive: 253%
Clc1cccc(/C=N/Nc2nnc(Cl)c3ccccc23)c1 | inactive: 9.3%
Cc1ccc(CN2CCN(/N=C/c3ccco3)CC2)c(C)c1 | inconclusive: 400%

Compound | activation
Cn1cccc1-c1nc2ccccc2n1C | active: 300%
CN1C(=O)CC(N2CCN(c3ccccc3)CC2)C1=O (stereo not drawn) | inactive: 0%
COc1cc2c(cc1OC)C(C(=O)Nc1ccccc1N1CCN(C)CC1)C1c3ccccc3CCN1C2=O (stereo not drawn) | active: 355%
Cc1cc(N2CCOCC2)nc2ccc(NC(=S)N3CCCCC3C)cc12 (stereo not drawn) | inactive: -72.7%
O=C1O/C(=C/c2ccccc2)N=C1c1ccccc1 | inconclusive: 415%
COc1ccc(CN2CC(C(=O)NCCC3=CCCCC3)CC2=O)cc1 (stereo not drawn) | inactive: 3.12%
Cc1c(C(=O)NCc2ccccc2)c(-c2ccccc2)nn1-c1ccccc1 | inactive: 107%
COc1ccc(/C=N/c2c(-c3ccco3)nc3ccccn23)cc1OC | inconclusive: 137%
c1ccc2c(c1)ncn2CCN1CCCCC1 | inconclusive: 450%
O=C(NCc1cccnc1)c1nc(-c2ccc(C(F)(F)F)cc2)no1 | active: 300%
CCOC(=O)CN1C(=N)N(c2nc(NC(C)C)nc(NC(C)C)n2)CC1=O | inconclusive: 492%
Cc1ccc(C2CC2C(=O)NNC(=S)Nc2ccc(Cl)cc2)cc1 (stereo not drawn) | inconclusive: 608%
O=C(NCc1ccc(F)cc1)C1Cc2ccccc2CN1C(=O)c1ccco1 (stereo not drawn) | inconclusive: 207%
CC(C)=C(C#N)c1nc2ccccc2s1 | inconclusive: 94.9%
Clc1cccc(CN2COc3c(cc(Cl)c4cccnc34)C2)c1 | inconclusive: 514%
CS(=O)(=O)N(CC(=O)NCCSCc1c(F)cccc1Cl)c1cccc([N+](=O)[O-])c1 | inconclusive: 173%
Cc1ccc2c(Cl)cc(Cl)c(OCC(=O)Nc3cc(C)on3)c2n1 | inactive: 3.33%
Cc1ccc(N2C(=O)CS/C2=C(\C(Cl)=C(Cl)Cl)[N+](=O)[O-])cc1 | inconclusive: 161%
CC1(C)CC(NC(=O)C23CCC(C)(/C(=N/O)C2)C3(C)C)CC(C)(C)N1 (stereo not drawn) | inconclusive: 123%
COc1ccc(N/C(=C(/C(Cl)=C(Cl)Cl)[N+](=O)[O-])n2nnc3ccccc32)cc1OC | inactive: 9.68%
O=[N+]([O-])c1ccc(-c2ccn[nH]2)o1 | inactive: -3.33%
O=C(Nc1ccccc1F)c1ccc(Cn2cc(Br)cn2)cc1 | inactive: 0%
COc1cc(CC(=O)OCC(=O)c2ccc3c(c2)OCCO3)cc(OC)c1OC | inconclusive: 154% [cytotoxic]
CC1=C(C(=O)OCc2ccccc2)C(c2ccoc2)C(C#N)=C(N)O1 (stereo not drawn) | inconclusive: 86.1%

Compound | activation
O=C1c2ccccc2-c2c1cccc2C(=O)N1CCOCC1 | inconclusive: 531%
COc1cc(C)c(S(=O)(=O)NCc2cccs2)cc1C | inconclusive: 412%
COc1cc(C(N)=O)cc(Br)c1OC | inconclusive: 492%
CCOC(=O)C(NC(=O)CC(C)C)(Nc1sc2c(c1C(N)=O)CCCC2)C(F)(F)F (stereo not drawn) | active: 450%
N#Cc1cc2c(nc1SCc1ccccc1)CCCC2=O | inconclusive: 412%
COC(=O)c1cccc(Cn2nc(C)c([N+](=O)[O-])c2C)c1 | inactive: 0%
Cc1nn(-c2cc(N3CCCC3)ccc2[N+](=O)[O-])c(=O)c2ccccc12 | active: 134%
CCCC(=O)Nc1cc(-c2cn3cccnc3n2)ccc1OC | inconclusive: 127%
CCn1c(CNc2ccc(F)cc2)nnc1SCC(=O)Nc1ccccc1OC | inconclusive: 485%
Cc1cc(NC(=O)COC(=O)c2oc3c(ccc4ccccc43)c2C)no1 | active: 415%
Cc1nc2cc3nc(C(F)(F)F)[nH]c3cc2[nH]1 | inactive: 3.33%
CCOC(=O)c1c(NC(=O)COC(=O)c2nc(Cl)ccc2Cl)sc2c1CCC2 | inactive: -3.33%
COc1cc(OC)nc(NC(=O)CSc2nc3ccccc3o2)n1 | inconclusive: 427%
COc1ccc(/C=N/NC(=O)CSc2n[nH]c(=O)[nH]c2=O)cc1 | inconclusive: 209%
O=C(NC(=S)Nc1ccc2[nH]c(=O)[nH]c2c1)c1cncc(Br)c1 | inconclusive: 76.5%
O=C(O)CCC1=C2c3ccccc3CCN2C(=O)CC1 | active: 450%
OC(c1ccccc1)(c1ccc(F)cc1)C(c1ccccc1)N1CCOCC1 (stereo not drawn) | inactive: -2.78%
N#CCSCC(=O)Nc1ccc(F)cc1 | inconclusive: 493%
Cc1cc(C(=O)NCCC2=CCCCC2)c(C)o1 | inconclusive: 418%
Cc1ccc(CNC(=O)C(CCC(N)=O)NC(=O)OCc2ccccc2)cc1 (stereo not drawn) | inactive: 5.26%
COc1ccccc1NC(=O)CCN1CC(C)OC(C)C1 (stereo not drawn) | inconclusive: 464%
Cc1c(-n2c(SCC(=O)O)nnc2-c2ccccc2Cl)c(=O)n(-c2ccccc2)n1C | inactive: 40%
O=c1c2c(-c3ccccc3)csc2nc2c3ccccc3c(NCCN3CCOCC3)nn12 | inconclusive: 191%
CCCN1CC=C2C(C#N)=C(N)C(C#N)(C#N)C(c3cc(OC)ccc3OC)C2C1 (stereo not drawn) | active: 178%

A different layout for part of the listing above.
Compound	activation
O=C1c2ccccc2-c2c1cccc2C(=O)N1CCOCC1	inconclusive: 531%
CCOC(=O)C(NC(=O)CC(C)C)(Nc1sc2c(c1C(N)=O)CCCC2)C(F)(F)F (stereo not drawn)	active: 450%
CCCC(=O)Nc1cc(-c2cn3cccnc3n2)ccc1OC	inconclusive: 127%
Cc1cc(C(=O)NCCC2=CCCCC2)c(C)o1	inconclusive: 418%
COc1ccccc1NC(=O)CCN1CC(C)OC(C)C1 (stereo not drawn)	inconclusive: 464%

Next part:

Compound | activation
CC1=C/C(=N\OS(=O)(=O)c2ccccc2)C(C)=CC1=O | inconclusive: 170% [cytotoxic]
C=CCn1c(=O)/c(=C2/Sc3ccccc3N2CC)s/c1=C1/C(=O)NN=C1C | inconclusive: 388%
O=C(Nc1cccc2ccccc12)N1CCc2ccccc2C1 | inconclusive: 400%
CN(C)CC(O)COC(c1ccccc1)c1ccccc1 (stereo not drawn) | inactive: 0%
NS(=O)(=O)c1ccc(NC(=S)Nc2cc(Cl)c(Cl)cc2Cl)cc1 | inactive: 0%
Cc1ccc(NS(=O)(=O)c2cccc(C(=O)Nc3cc(C)on3)c2)cc1 | active: 369%
COc1cc(C2C3CN(C)CC=C3C(C#N)=C(N)C2(C#N)C#N)ccc1OC(C)C (stereo not drawn) | active: 257%
CCCC(=O)Nc1ccc(C#Cc2ccccc2)cc1 | inconclusive: 179%
CCN(CC)S(=O)(=O)c1ccc(F)c(C(=O)NCCC(C)C)c1 | inconclusive: 438%
COc1cc(C2C3=C(Nc4ncnn42)c2ccccc2CC3)cc(OC)c1OC (stereo not drawn) | inconclusive: 257% [cytotoxic]
COc1ccc(-c2noc(CN(C)S(=O)(=O)c3ccccc3)n2)cc1OC | inconclusive: 48.1%
Cc1ccnc(N(C(=O)c2cccs2)C(=O)c2cccs2)c1 | active: 83.9%
C=CCOc1c(CNn2nnnc2N)cccc1OC | inconclusive: 494%
O=C(CCCn1c(=O)[nH]c2cc(Cl)ccc2c1=O)NCCCN1CCN(c2ccc(F)cc2)CC1 | active: 267%
CCOC(=O)C1CCCN(C(=O)c2ccc(C)c([N+](=O)[O-])c2)C1 (stereo not drawn) | inactive: 0%
O=C(NCc1cccs1)C1CCN(c2ccc(S(=O)(=O)N3CCOCC3)cc2Cl)CC1 | inconclusive: 221% [cytotoxic]
Oc1ccc(-n2cnnn2)cc1 | inactive: -6.67%
CCOCCCn1c(-c2ccc(Cl)cc2)n[nH]c1=S | inconclusive: 457%
Cc1nnc(SCc2cccc(Cl)c2)n(N)c1=O | active: 508%
CS(=O)(=O)NCCSc1nnnn1-c1ccccc1 | inconclusive: 554%
O=C(c1cccc(S(=O)(=O)N2CCCCC2)c1)N1CCOCC1 | inconclusive: 182%
